Reference: PubChem BioAssay AID493014 (National Center for Advancing Translational Sciences (NCATS), 2011)
The whole screen tested about 340,000 compounds, of which about 170 (0.05%) were called active. This list was built around the results that the source calls inconclusive (neither active nor inactive); the mix of calls is not that of the screen. The call rests on the fitted dose curve; in most records, active means well fitted inhibition curve with a large enough effect in the signal ratio, with a control signal flat (not every such curve was filed as active); inconclusive means small, poorly fitted or top-dose-only effect, or effect the other way, or a change in a side signal; inactive means flat fitted curve, though single readings scatter; the % refers to the signal ratio. Potencies of inconclusive entries are doubtful fits and often do not repeat.

Experiment: qHTS Assay to Find Inhibitors of Chronic Active B-Cell Receptor Signaling;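 on activity change, negative = inhibition: plate controls were basal doxycycline-induced cells for no effect and cells given 10 µM MG132 for full effect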
Details: ABC-DLBCL IkBa-CBG/CBR reporter, luminescence ratio (green luciferase fused to IkBa over red control in TMD8 lymphoma cells), 4 h; activity change, negative = inhibition: at 46.1 µM (top of the series)
Method in brief: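 TMD8 human ABC-DLBCL cells with doxycycline-inducible IκBα–green luciferase fusion and unfused red luciferase, in 0.5% FBS medium; compounds up to 46 uM, 4 h at 37C. Green/red luminescence ratio, filter-overlap corrected, fitted to concentration-response curves.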
Potency means the concentration at half of the fitted maximal effect.

Row | Compound | Potency | activity change, negative = inhibition
1 | COc1ccc(-c2oc3ncnc(NCCCN(C)C)c3c2-c2ccc(OC)cc2)cc1 | inconclusive: 22.4 µM [falling, single point] | 
2 | COc1cccc(C(=O)C2CCCN(Cc3cccn3-c3ccccn3)C2)c1 (stereo not given) |  | inactive
3 | CCN1C(=O)c2cccc3c(NC(=O)c4cccc(N5C(=O)CCC5=O)c4)ccc1c23 |  | inconclusive: -9.33%
4 | CCOc1ccc(-c2nnc(SCC(=O)NCCC(C)C)nc2-c2ccc(OCC)c(OC)c2)cc1OC |  | inactive
5 | CCOC(=O)c1c(C)[nH]c2cc(Br)c(O)cc12 |  | inconclusive: 13.4%
6 | CC1CCCCN1CC(=O)Nc1ccc2c(c1)OC(F)(F)O2 (stereo not given) |  | inconclusive: 0.977%
7 | O=C(O)CCC(=O)N1CCc2cc(S(=O)(=O)NC3CCCc4ccccc43)ccc21 (stereo not given) | inconclusive: 15.8 µM [falling, partial curve] | 
8 | CCc1ccc2oc(-c3cc(N)ccc3O)nc2c1 | inconclusive: 29.1 µM [falling, single point] | 
9 | O=C(NCc1ccccn1)c1ccc2nc(-c3ccco3)c(-c3ccco3)nc2c1 | inconclusive: 25.9 µM [activator, partial curve, poor fit] | 
10 | CCOC(=O)c1cc(-c2ccc(Cl)s2)[nH]n1 | inconclusive: 0.501 µM [rising, full curve] | 
11 | CC(=O)c1ccc(-c2ccc([C@H]3[C@@H]4C=CCC[C@@]4(C)C(=O)N3Cc3ccccc3)c(F)c2)cc1 |  | inconclusive: 0.171%
12 | O=c1c2ccccc2nnn1CSc1ccccc1 |  | inconclusive: -29%
13 | CC(NCc1ccc(OCc2ccc(Cl)cc2)cc1)C(O)c1ccccc1 (stereo not given) |  | inactive
14 | O=C(Nc1ccc(OC(F)F)c(Cl)c1)c1cccc(OC(F)F)c1 | inconclusive: 8.2 µM [falling, partial curve, poor fit] | 
15 | CCOc1ccc(CNc2ccc3c(c2)ncn3C)cc1 |  | inconclusive: -1.32%
16 | O=C(Cc1ccccc1)NNC(=O)c1ccc(NC(=O)c2ccccc2)cc1 |  | inactive
17 | COc1ccccc1CNC(=O)CNC(=O)c1ccc(Br)o1 |  | inactive
18 | CC(NC(=O)c1cc(Sc2ccc(F)cc2F)nc2ccccc12)c1ccccc1 (stereo not given) |  | inconclusive: -8.85%
19 | CC1=CC(C)C2C(=O)N(c3ccccc3)C(=O)C2C1 (stereo not given) | inconclusive: 0.82 µM [rising, full curve, poor fit] | 
20 | COc1cccc(-c2cc(=O)c3cc(NC(=O)c4ccc(Cl)cc4)ccc3[nH]2)c1 |  | inactive
21 | COC(=O)c1ccc(COc2ccc(-c3nnn(CC(N)=O)n3)cc2)cc1 |  | inconclusive: -20%
22 | O=C(COc1ccc2ccc(=O)oc2c1)Nc1cccc(S(=O)(=O)N2CCCCC2)c1 |  | inactive
23 | Cc1ccc(C)c(N2CCN(CCCNC(=O)Nc3cc(Cl)ccc3C)CC2)c1 |  | inconclusive: 6.87%
24 | O=C(N/N=C/c1cc([N+](=O)[O-])ccc1O)c1cc(-c2ccccc2)nc2ccccc12 |  | inactive
25 | CN(CC(=O)N1CCN(c2ccccn2)CC1)S(=O)(=O)c1ccc(Br)cc1 |  | inconclusive: 8.46%
26 | Cc1nn(-c2ccccc2)c(Cl)c1/C=C(\C#N)C(=O)NC(C)C | inconclusive: 25.9 µM [falling, partial curve, poor fit] | 
27 | COc1ccccc1C(=O)OCc1c(-c2ccccc2)ncc2ccccc12 | inconclusive: 20.6 µM [falling, partial curve] | 

Row | Compound | Potency | activity change, negative = inhibition
28 | Cc1ccc(N2CC(C(=O)N/N=C/c3c(F)cccc3Cl)CC2=O)cc1 (stereo not given) |  | inactive
29 | Cc1cc(=O)oc(C)c1C(=O)OCC(=O)c1ccc(Cl)cc1 |  | inconclusive: 14.4%
30 | CCc1nnc(NC(=O)C2(C)COC(c3ccc(OC)cc3)OC2)s1 (stereo not given) |  | inconclusive: -1.49%
31 | COc1cc(CNc2ccccc2)c([N+](=O)[O-])cc1OC |  | inconclusive: -0.237%
32 | O=C1c2ccccc2NC(c2ccc(F)cc2)N1Cc1ccccc1 (stereo not given) |  | inconclusive: -0.324%
33 | OCc1ccc(-c2nn(Cc3ccccc3)c3ccccc23)o1 | inconclusive: 29.1 µM [falling, single point] | 
34 | O=C(NCCc1ccccn1)C1CCCN(S(=O)(=O)Cc2ccccc2)C1 (stereo not given) |  | inconclusive: 13.1%
35 | O=C1/C(=C/c2ccc(O)cc2)SC(=S)N1Cc1cccnc1 |  | inactive
36 | CCCCC(=O)Nc1ccc(NC(=O)c2ccc3c(c2)OCO3)cc1OC | inconclusive: 29.1 µM [rising, single point] | 
37 | O=C1c2ccccc2C2=Nc3ccccc3SC(c3ccc(Cl)cc3)C12 (stereo not given) | inconclusive: 18.4 µM [activator, single point] | 
38 | COc1cnc(-c2ccccn2)nc1Oc1ccc(C(C)(C)C)cc1 |  | inconclusive: -11%
39 | O=C(/C=C/c1ccc2c(c1)OCO2)N1CCN(c2ccccc2F)CC1 |  | inactive
40 | CC1CCCN(Cc2c(O)ccc3c(=O)c(-c4nc5ccccc5s4)c(N)oc23)C1 (stereo not given) | inconclusive: 3.16 µM [falling, partial curve, poor fit] | 
41 | O=C(NC1CC2CCCC(C1)N2Cc1ccccc1)C1CCCCC1 (stereo not given) |  | inconclusive: 8.22%
42 | COc1cccc(-n2c(=O)c3c(C)c(C(=O)N(C)C)sc3n(CC(=O)NCCc3ccc(OC)c(OC)c3)c2=O)c1 | inconclusive: 35.5 µM [falling, partial curve, poor fit] | 
43 | C=CCn1c(COc2ccccc2)nnc1SCC(=O)C(C)(C)C |  | inconclusive: -3.7%
44 | O=C1N=C(N2CCCC2)S/C1=C\C=C\c1ccccc1 | inconclusive: 15.8 µM [falling, partial curve] | 
45 | COc1cc2c(cc1OC)C(c1ccc(C)cc1)NC(=O)C2 (stereo not given) |  | inconclusive: -11.8%
46 | O=C(CSc1ccccn1)Nc1ccc(NC(=O)CSc2ccccn2)cc1 |  | inactive
47 | Cc1oc2nc(SCCCC(=O)NCCCO)nc(N)c2c1C |  | inconclusive: -17.2%
48 | O=C(CSc1ncn[nH]1)Nc1ccc(Br)cc1Br |  | inconclusive: -15.9%
49 | Cc1ccc(S(=O)(=O)Nc2cc(C(=O)NCCN3CCCC3)ccc2N2CCCCC2)cc1 |  | inconclusive: -23%
50 | Clc1ccc(-c2nc(-c3cnccn3)no2)cc1 | inconclusive: 28.2 µM [falling, single point] | 
51 | CCOc1ccc(N2C(=O)C3=C(C(c4ccc(Cl)cc4)=NCCN3)C2c2cccnc2)cc1 (stereo not given) |  | inactive
52 | CN1CCN(CCOc2ccc(Cl)c(Cl)c2)CC1 |  | inactive
53 | Cc1cccc(C)c1NC(=O)C1CCCN1C(=O)NCc1ccccc1 (stereo not given) |  | inactive
54 | O=C(COC(=O)c1n[nH]c2ccccc12)Nc1ccccc1Br | inconclusive: 23.1 µM [falling, single point] | 

Row | Compound | Potency | activity change, negative = inhibition
55 | CCCCC(=O)Nc1ccc(C(=O)c2ccccc2)cc1 |  | inconclusive: -1.67%
56 | Cc1ccc(C)c(OCc2nc(-c3cccnc3)no2)c1 |  | inconclusive: 4.13%
57 | Cc1c(CN2CCC(C(=O)Nc3cccc(-c4cccc(Cl)c4)c3)CC2)cnn1C | inconclusive: 35.5 µM [falling, single point] | 
58 | CC(C)c1ccc(NC(=O)c2csnn2)cc1 |  | inconclusive: 2.18%
59 | O=C(c1noc2c1CCCC2)N1CCCC(N2CCN(c3ccccc3F)CC2)C1 (stereo not given) |  | inactive
60 | O=C(COC(=O)C1CC1)Nc1ccc(N=Nc2ccccc2)cc1 |  | inconclusive: 4.07%
61 | CC(C)(C)OC(=O)NCCc1nnc(S(=O)(=O)Cc2ccc(Cl)cc2Cl)o1 |  | inconclusive: -8.34%
62 | Cc1cc[n+](-c2[nH]c(=O)sc2/C=N/NC([S-])=Nc2ccccc2)cc1C | inconclusive: 23.1 µM [rising, partial curve, poor fit] | 
63 | CC1CCc2cc(F)ccc2N1S(=O)(=O)c1ccc(Cl)nc1 (stereo not given) |  | inconclusive: -0.124%
64 | CCN(CC)S(=O)(=O)c1cc(NC(=O)C2CSC3(C)CCC(=O)N23)ccc1C (stereo not given) |  | inconclusive: 5.57%
65 | O=C(CCc1nc(-c2ccccc2Cl)no1)NCCc1ccccc1 |  | inactive
66 | O=C(COC(=O)c1ccccc1N1C(=O)C2C3CCC(C3)C2C1=O)c1ccccc1 (stereo not given) |  | inactive
67 | CCCN1C=CC(=C2C(=O)c3ccccc3C2=O)C=C1 | inconclusive: 16.4 µM [falling, partial curve] | 
68 | O=C(O)c1cc([N+](=O)[O-])cc2c1nnn2O | inconclusive: 12.6 µM [rising, partial curve, poor fit] | 
69 | O=C(c1ccco1)[C@@H]1[C@@H]2C(=O)N(c3ccc(Br)cc3)C(=O)[C@@H]2C2c3ccccc3C=CN21 (stereo not given in full) | inconclusive: 35.5 µM [falling, partial curve, poor fit] | 
70 | Cc1nc(C)c(C(=O)N/N=C/c2c[nH]c3ccccc23)s1 | inconclusive: 13 µM [falling, partial curve, poor fit] | 
71 | CC(C)NC(=O)CS(=O)(=O)c1ccccc1 |  | inactive
72 | CC(=O)n1c(-c2ccccc2)c(CO)c2ccccc21 |  | inconclusive: 1.64%
73 | CN(C)n1cnc2ccsc2c1=O |  | inconclusive: 9.06%
74 | CCOC(=O)C1=CN(CC)S(=O)(=O)NC1CC (stereo not given) |  | inactive
75 | Cc1ccc(-n2c(SCC(=O)OC(C)C)nnc2-c2ccco2)cc1 |  | inconclusive: 6.39%
76 | N/C(=N\OC(=O)Cc1cccs1)c1ccccc1 |  | inconclusive: 15%
77 | O=C(/C=C(/c1ccc(Cl)cc1)n1cncn1)c1ccccc1 |  | inconclusive: 0.418%
78 | Cc1cc(C(=O)Nc2nnc(C3CCCCC3)s2)cs1 | inconclusive: 1.46 µM [rising, partial curve, poor fit] | 
79 | COC(=O)c1ccc(COc2cccc3c2OC(C)(C)C3)cc1 |  | inconclusive: -17.6%
80 | Cc1[nH][nH]c(=O)c1C(c1ccc(N(C)C)c(Br)c1)c1c(C)[nH][nH]c1=O |  | inconclusive: -4.75%

3 records picked at random from those above, as already listed:
Row | Compound | Potency | activity change, negative = inhibition
60 | O=C(COC(=O)C1CC1)Nc1ccc(N=Nc2ccccc2)cc1 |  | inconclusive: 4.07%
72 | CC(=O)n1c(-c2ccccc2)c(CO)c2ccccc21 |  | inconclusive: 1.64%
77 | O=C(/C=C(/c1ccc(Cl)cc1)n1cncn1)c1ccccc1 |  | inconclusive: 0.418%

Ordered by count of non-hydrogen atoms (rising): some entries from above
Row | Compound | Potency | activity change, negative = inhibition
76 | N/C(=N\OC(=O)Cc1cccs1)c1ccccc1 |  | inconclusive: 15%
56 | Cc1ccc(C)c(OCc2nc(-c3cccnc3)no2)c1 |  | inconclusive: 4.13%
64 | CCN(CC)S(=O)(=O)c1cc(NC(=O)C2CSC3(C)CCC(=O)N23)ccc1C (stereo not given) |  | inconclusive: 5.57%
